This experiment has as its target PTEN (phosphatase and tensin homolog) (human (endogenous in PLC/PRF/5)) (UniProt P60484). Put plainly: co-IP; lysates from PLC/PRF/5 cells immunoprecipitated with antibodies against HSA, AFP or PTEN; SDS-PAGE; immunoblotted with anti-HSA, anti-AFP or anti-PTEN antibody. For orientation: Immunoblotting shows a protein as a band on a membrane.

By UniProt entry, the sequences of proteins in these tests, tags left out.
UniProt P60484: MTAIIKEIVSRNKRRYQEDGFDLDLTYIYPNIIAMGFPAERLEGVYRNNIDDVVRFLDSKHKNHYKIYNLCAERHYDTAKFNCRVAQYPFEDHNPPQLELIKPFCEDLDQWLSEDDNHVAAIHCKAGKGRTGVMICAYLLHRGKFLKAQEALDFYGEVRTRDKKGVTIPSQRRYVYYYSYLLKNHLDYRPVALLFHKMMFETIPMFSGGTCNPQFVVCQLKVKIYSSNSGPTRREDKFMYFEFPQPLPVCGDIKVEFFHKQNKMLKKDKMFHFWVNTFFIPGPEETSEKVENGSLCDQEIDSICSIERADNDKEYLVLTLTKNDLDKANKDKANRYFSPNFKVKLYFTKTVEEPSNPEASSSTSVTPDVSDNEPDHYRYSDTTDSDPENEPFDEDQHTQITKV

These are yes or no findings as the source states them, for the method shown. In cells and extracts the contact can be indirect. Some binding calls cover weakened binding; strength is not graded here.

B1: Human alpha-fetoprotein (AFP) (protein, UniProt P02771 19-609)
chain: RTLHRNEYGIASILDSYQCTAEISLADLATIFFAQFVQEATYKEVSKMVKDALTAIEKPTGDEQSSGCLENQLPAFLEELCHEKEILEKYGHSDCCSQSEEGRHNCFLAHKKPTPASIPLFQVPEPVTSCEAYEEDRETFMNKFIYEIARRHPFLYAPTILLWAARYDKIIPSCCKAENAVECFQTKAATVTKELRESSLLNQHACAVMKNFGTRTFQAITVTKLSQKFTKVNFTEIQKLVLDVAHVHEHCCRGDVLDCLQDGEKIMSYICSQQDTLSNKITECCKLTTLERGQCIIHAENDEKPEGLSPNLNRFLGDRDFNQFSSGEKNIFLASFVHEYSRRHPQLAVSVILRVAKGYQELLEKCFQTENPLECQDKGEEELQKYIQESQALAKRSCGLFQKLGEYYLQNAFLVAYTKKAPQLTSSELMAITRKMAATAATCCQLSEDKLLACGEGAADIIIGHLCIRHEMTPVNPGVGQCCTSSYANRRPCFSSLVVDETYVPPAFSDDKFIFHKDLCQAQGVALQTMKQEFLINLVKQKPQITEEQLEAVIADFSGLLEKCCQGQEQEVCFAEEGQKLISKTRAALGV
Consider B1, for which the binding result was “binds”.
